PubChem BioAssay AID540303 (National Center for Advancing Translational Sciences (NCATS), 2011)
In all, about 330,000 compounds went through this assay and about 1,000 (0.3%) were called active. The inconclusive results got no clear call from the source; some entries with a clear call stand among them for comparison. Calls come from the whole dose curve; as a rule, active = well fitted inhibition curve with a large enough effect; inconclusive = small, poorly fitted or top-dose-only effect; inactive = no such curve, though single readings can be large or run the other way; tested in mouse RAW 264.7 cells. Potencies beside an inconclusive call are fits to weak or partial responses and may not hold up.

test: qHTS for Inhibitors of Cell Surface uPA Generation; details: cell surface uPA generation assay; series mostly up to 38.3 µM; activity change, negative = inhibition: at the top concentration; note: nearly all actives have a fitted effect of over 55% in size
Procedure, shortened: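 RAW 264.7, 4000 cells/well, o/n 37 C; cpd 1:5 dilution, up to 38.3 uM final; 24 h 37 C/5% CO2 with reagent; ATP-Lite lum. High ATP = LF entry blocked.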
% is set by controls: 0 for no effect and ±100 for the full control effect; potency is the fitted concentration of half-maximal effect.

| SMILES | Potency | activity change, negative = inhibition |
| --- | --- | --- |
| COc1cc2c(c3oc(-c4ccccc4)cc(=O)c13)C=CC(C)(C)O2 | inconclusive: 5.01 µM [inhibitor, partial curve] | – |
| COCCOC(=O)c1[nH]c2c(c1C)C(=O)CC(c1cc(OC)ccc1OC)C2 (centres undefined) | inconclusive: 7.08 µM [inhibitor, partial curve, poor fit] | – |
| Cc1cccnc1NC(=O)CCC(=O)c1cccs1 | inconclusive: 0.501 µM [inhibitor, full curve, poor fit] | – |
| Cc1ccc(SCCOCCN2CCc3ccccc3C2)cc1 | inconclusive: 31.6 µM [inhibitor, single point] | – |
| O=C(NC(=C(Cl)Cl)S(=O)(=O)c1ccc(Cl)cc1)c1ccccc1 | active: 8.91 µM | – |
| COc1ccc(-c2nc(Cn3c(SCc4ccc(F)cc4)nc4ccncc43)c(C)o2)cc1OC | inconclusive: 6.31 µM [inhibitor, single point] | – |
| CC1=CC(C)(C)Nc2ccc(OC(=O)CN3C(=O)c4cccc5cccc(c45)C3=O)cc21 | – | inactive: -4.81% |
| COc1ccc(N(CC(=O)N2CCOCC2)S(=O)(=O)c2ccccc2)cc1Cl | inconclusive: 5.62 µM [inhibitor, partial curve, poor fit] | – |
| Cc1cc(O)c(NC(=S)NC(=O)c2ccc(-c3ccc(Cl)cc3)o2)cc1C | – | inactive: -1.46% |
| O=C(/C=C/c1ccccc1)NC(=S)Nc1ccccc1O | – | inactive: -8.25% |
| C/C(=N\NC(=O)c1ccc(F)cc1)c1ccccn1 | inconclusive: 12.6 µM [inhibitor, single point] | – |
| COc1ccc(C)cc1C1=CC(=O)C[C@H](c2ccc(F)cc2)C1 | inconclusive: 3.16 µM [inhibitor, partial curve, poor fit] | – |
| CC(C)(C)c1ccc(O)c(O)c1 | inconclusive: 7.94 µM [inhibitor, single point] | – |
| C#CCSc1nsc(SCC#C)c1C#N | inconclusive: 14.1 µM [inhibitor, partial curve, poor fit] | – |
| C[C@@H]1CN([C@@H](C)CO)C(=O)c2cc(NC(=O)C3CC3)ccc2O[C@@H]1CN(C)Cc1ccc(Cl)c(Cl)c1 | inconclusive: 28.2 µM [inhibitor, single point] | – |
| C=CCNC(=O)c1c(Cl)cnn1-c1ccc(C)cc1 | – | inactive: 0.484% |
| O=S(=O)(Nc1nc2ccccc2nc1Nc1cccc(S(=O)(=O)N2CCCCC2)c1)c1ccccc1 | – | inactive: -2.57% |
| Cc1nn(C(C)C)c(C)c1CN1CCC(C(=O)Nc2cccc(-c3cccc(F)c3)c2)CC1 | inconclusive: 20 µM [inhibitor, single point] | – |
| COc1ccccc1/C=C/C=N/n1c(-c2ccccn2)n[nH]c1=S | – | inactive: -12.7% |
| CCCN(C(=O)Cn1ncc2c([nH]c3ccccc32)c1=O)c1ccccc1C | – | inactive: 5.8% |
| O=C(Nc1cccc(S(=O)(=O)NC2=NCCC2)c1)c1cn(-c2ccccc2)nc1-c1ccc(F)cc1 | inconclusive: 2.82 µM [inhibitor, full curve, poor fit] | – |
| Cn1c(CC(=O)Nc2ccccc2)cc2ccccc21 | active: 4.47 µM | – |

Four consecutive records out of the list so far, for reference:

| SMILES | Potency | activity change, negative = inhibition |
| --- | --- | --- |
| COc1ccccc1/C=C/C=N/n1c(-c2ccccn2)n[nH]c1=S | – | inactive: -12.7% |
| CCCN(C(=O)Cn1ncc2c([nH]c3ccccc32)c1=O)c1ccccc1C | – | inactive: 5.8% |
| O=C(Nc1cccc(S(=O)(=O)NC2=NCCC2)c1)c1cn(-c2ccccc2)nc1-c1ccc(F)cc1 | inconclusive: 2.82 µM [inhibitor, full curve, poor fit] | – |
| Cn1c(CC(=O)Nc2ccccc2)cc2ccccc21 | active: 4.47 µM | – |

Continuation:

| SMILES | Potency | activity change, negative = inhibition |
| --- | --- | --- |
| COc1ccc2c(c1)OC[C@H]1[C@H]2N2C(=O)c3cc(OC)c(OC)cc3NC(=O)[C@@]2(C)[C@H]1c1ccccc1 | inconclusive: 12.6 µM [inhibitor, single point] | – |
| Cc1ccc(NC(=O)c2ccc(OCC3CCCO3)cc2)cc1 (centres undefined) | inconclusive: 11.2 µM [inhibitor, single point] | – |
| Cc1cc([N+](=O)[O-])nn1CC(=O)N/N=C/c1ccc(O)cc1O | inconclusive: 8.91 µM [inhibitor, single point] | – |
| COc1ccccc1N1C(=O)CC(Sc2nc(C)cc(C)n2)C1=O (centres undefined) | – | inactive: 2.12% |
| O=C(CCl)Nc1ccccc1C(=O)c1ccccc1 | inconclusive: 17.8 µM [inhibitor, partial curve, poor fit] | – |
| Cc1oc2cc3oc(=O)c(CCC(=O)NCc4ccccn4)c(C)c3cc2c1C | – | inactive: 12.1% |
| CC(C)CN=Cc1c(O)c([N+](=O)[O-])cc2oc3c(c12)CCCC3 | – | inactive: -7.36% |
| COc1ccc(C2CC(c3ccc4ccccc4c3)=NN2C(=O)CNC2CCCCC2)cc1 (centres undefined) | inconclusive: 28.2 µM [inhibitor, single point] | – |
| Cn1c(SCC(=O)c2cc3ccccc3o2)nnc1-c1ccccc1 | inconclusive: 28.2 µM [inhibitor, single point] | – |
| CCc1ccc(NC(=O)COc2ccc(/C=C(/C#N)c3nc4ccccc4[nH]3)cc2OC)cc1 | – | inactive: 2.41% |
| COCC(=O)N(c1ccc(C(C)C)cc1)C1C=CS(=O)(=O)C1 (centres undefined) | – | inactive: -1.77% |
| CC1Cc2ccccc2N1S(=O)(=O)c1cccc(C(=O)NCc2ccncc2)c1 (centres undefined) | inconclusive: 12.6 µM [inhibitor, single point] | – |
| NC[C@@H]1O[C@H](C23CC4CC(CC(C4)C2)C3)Cc2c1ccc(O)c2O | inconclusive: 5.62 µM [inhibitor, partial curve] | – |
| Cc1cccc(N2CCN(C(=O)CCC(=O)N3CC(C)Oc4ccccc43)CC2)c1C (centres undefined) | – | inactive: 1.23% |
| COc1cc(/C=N\NC(=O)c2ccc(-c3ccccc3)cc2)cc(OC)c1O | – | inactive: -15.2% |
| Cc1cc(C)c(S(=O)(=O)N2CCCCC2CCNC(=O)C(=O)NCc2ccccn2)c(C)c1 (centres undefined) | – | inactive: -5.22% |
| O=C(N/N=C/C(Cl)=C/c1ccc([N+](=O)[O-])cc1)C(=O)Nc1cccc(C(=O)O)c1 | inconclusive: 1.12 µM [inhibitor, partial curve, poor fit] | – |
| C[C@H](NC(=O)c1nc[nH]c1C(=O)NCc1ccc(CNC(=O)OC(C)(C)C)cc1)C(=O)OCc1ccccc1 | – | inactive: -8.61% |
| COc1cc(OC)c2c(-c3cccc(-c4ccc(C(F)(F)F)cc4)c3)cc(=O)oc2c1 | inconclusive: 3.16 µM [inhibitor, single point] | – |
| CCOC(=O)N1CCN(C(=O)c2cc3c(s2)-c2c(C)cccc2OC3)CC1 | – | inactive: -7.88% |
| Cc1c(CCOC(=O)C23CC4CC(CC(C)(C4)C2)C3)sc[n+]1CC(=O)c1ccccc1 | inconclusive: 12.6 µM [inhibitor, single point] | – |
| Cn1cnnc1Sc1ccc(C(=O)NCCC(c2ccccc2)c2ccccc2)cc1[N+](=O)[O-] | inconclusive: 12.6 µM [inhibitor, single point] | – |
